Laboratory results reported in PubChem BioAssay AID2685 (National Center for Advancing Translational Sciences (NCATS), 2010).
The other results are listed elsewhere or left out. Further columns of the screen follow, without active or inactive calls. The list favours compounds with an active or inconclusive main result. Words in brackets tell the shape of the fitted curve; partial curves, single points and poor fits give uncertain potencies.

Assay: qHTS Assay for Lipid Storage Modulators in Drosophila S3 Cells;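 on cell number change: cells counted by Cell Tracker Red CMTPX staining in the red channel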
Conditions: BODIPY lipid droplet fluorescence, 18-24 h; for cell number change: measured here: cell count max response, cells fed with added oleic acid
Outline: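 Drosophila S3 cells loaded with oleic acid (400 uM, as added) and compounds at several concentrations; lipid droplets imaged by 488-nm laser-scanning cytometry, 500–530 nm intensity and object ratio to cell channel. Percent activity normalized to 20 uM Triacsin C.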

[1] = measured here: lipid fluorescence (Fed channel) AC50, cells fed with added oleic acid
[2] = measured here: cell number channel AC50, cells fed with added oleic acid

| Compound | cell number change [%] | AC50 [1] | AC50 [2] |
| --- | --- | --- | --- |
| COc1ccc(CN2C(=O)COc3ccccc32)cc1 | 2.46 | 0.411 µM [rising, single point] | – |
| CCO[C@H]1OC(C(=O)NC2CC2)=C[C@@H](c2ccccc2)[C@@H]1CCCO | 20.2 | 5.17 µM [rising, partial curve, poor fit] | – |
| Cn1c(SCc2cccc(F)c2)nnc1-c1ccccn1 | 18.6 | 29.1 µM [rising, single point] | – |
| Cc1cccc(NC(=O)CNC(=O)COC(=O)c2ccc(C(C)(C)C)cc2)c1C | 36.6 | 23.1 µM [rising, partial curve, poor fit] | 0.0651 µM [rising, full curve, poor fit] |
| CC(C)=CC1C(C(=O)Nc2ccc(Br)cn2)C1(C)C (stereo not given) | -34 | – | 29.1 µM [falling, single point] |
| O=C(CN1CCCC1)Nc1c2c(nc3ccccc13)N(Cc1ccccc1)CC2 | 22.2 | 1.84 µM [rising, partial curve, poor fit] | – |
| CN(c1cccc(NC(=O)c2cccc([N+](=O)[O-])c2)c1)S(C)(=O)=O | 10.2 | 25.9 µM [falling, single point] | – |
| CN(C)c1nnc(-c2ccc(Cl)cc2)o1 | 47.5 | 18.4 µM [rising, single point] | 29.1 µM [rising, single point] |
| COc1ccc(N(C(=O)c2snc(C(N)=O)c2N)C(C(=O)NCc2ccccc2)c2ccc(O)cc2)cc1 (stereo not given) | -0.806 | 0.00461 µM [falling, full curve] | – |
| COc1ccc(CCNS(=O)(=O)c2ccc(OC)c(OC)c2)cc1OC | 14.3 | 29.1 µM [rising, single point] | – |
| CCOc1ccc(-n2c(SCc3nc(-c4cccs4)no3)nnc2-c2ccncc2)cc1 | – | 0.411 µM [rising, partial curve, poor fit] | 0.411 µM [rising, partial curve, poor fit] |
| COc1ccc(N2CC(C(=O)N3CCN(C(=O)c4ccco4)CC3)CC2=O)cc1 (stereo not given) | -1.9 | 29.1 µM [rising, partial curve, poor fit] | – |
| CCn1c(SCC(=O)O)nc2ccccc21 | -0.36 | 0.58 µM [falling, full curve, poor fit] | – |
| Cc1c(C)n(Cc2ccccc2)c2ccc(C(=O)NCCN3CCOCC3)cc12 | 41.7 | 25.9 µM [rising, single point] | 16.4 µM [rising, single point] |
| CC(C)(C)n1cnc2cc(NC(=O)c3ccccc3)ccc21 | -9.26 | 6.51 µM [falling, single point] | – |
| CCOc1cccc(CNCc2ccncc2)c1 | – | 29.1 µM [rising, single point] | – |
| COc1cc(OC)cc(C(=O)NNC(=S)Nc2ccccc2OC)c1 | 1.14 | 2.91 µM [rising, partial curve] | 3.26 µM [rising, partial curve] |
| CC(C)N=C1SCC(C)(/C=N/O)S1 (stereo not given) | 7.12 | – | – |
| COc1ccc(C(=O)COC(=O)c2cc(C)no2)c(OC)c1 | 8.43 | 0.731 µM [falling, full curve] | – |
| Cc1oc(-c2ccccc2F)nc1CSCC(=O)NC1CCC(C)CC1 (stereo not given) | – | 6.51 µM [rising, partial curve] | – |

| Compound | cell number change [%] | AC50 [1] | AC50 [2] |
| --- | --- | --- | --- |
| CCCOP(=O)(c1ccc(N(C)C)cc1)C(O)c1ccncc1 (stereo not given) | 3.52 | 0.00651 µM [falling, full curve, poor fit] | – |
| CSc1cccc(NC(=S)NC(=O)c2cccnc2)c1 | 9.12 | – | – |
| O=[N+]([O-])c1cc(-c2ccn[nH]2)ccc1Cl | 9.91 | – | – |
| CC(C(=O)NC1CCCCC1)N1CCN(S(=O)(=O)c2cccs2)CC1 (stereo not given) | 17.1 | 5.17 µM [rising, full curve, poor fit] | – |
| COC(=O)CNC(c1ccccc1Cl)c1cc(Br)ccc1NS(=O)(=O)c1ccc(C)cc1 (stereo not given) | 16.4 | 0.231 µM [rising, full curve, poor fit] | – |
| COC(=O)c1c(-n2cnnn2)sc(C)c1C | -4.94 | 0.103 µM [falling, full curve, poor fit] | – |
| O=C(c1cccs1)N1CCCC(c2nc3c(nnn3Cc3ccc(F)cc3)c(=O)[nH]2)C1 (stereo not given) | -18.4 | – | – |
| O=C(NC1CCCCC1)C1CC(=O)N(Cc2ccccc2)C1 (stereo not given) | 13.9 | 6.51 µM [falling, single point] | – |
| O=C(COC(=O)/C=C/c1cccc([N+](=O)[O-])c1)Nc1ccc(Cl)cn1 | 4.44 | – | – |
| CCOC(=O)N1CCc2c(sc3c2c(=O)n(Cc2ccccc2)c(=O)n3CC(=O)NCC2CCCO2)C1 (stereo not given) | 7.08 | 3.26 µM [rising, single point] | 6.51 µM [rising, single point] |
| CNC(=O)CSc1nc2cc(S(=O)(=O)Nc3ccccc3OC)ccc2o1 | 1.68 | 6.51 µM [rising, single point] | – |
| CC1=C(C(=O)OCc2ccccc2)C(c2cccc(Br)c2)NC(=O)N1 (stereo not given) | -25.5 | 6.51 µM [falling, partial curve, poor fit] | – |
| CCN1CCN(C(=O)C(C)Sc2nnc3nc(C)cc(C)n23)CC1 (stereo not given) | -16.8 | 0.00651 µM [falling, full curve, poor fit] | 0.731 µM [falling, partial curve, poor fit] |
| Cc1ccccc1NS(=O)(=O)c1cc(C(=O)Nc2cccnc2)ccc1C | 1.62 | 29.1 µM [falling, single point] | – |
| O=C(c1ccc(COc2ccc(F)cc2)o1)n1cccn1 | -1.44 | 0.092 µM [falling, full curve, poor fit] | – |
| CCn1c(SCC(=O)Nc2ccc(C)cc2)nc2sc3c(c2c1=O)CCN(C)C3 | -15.1 | 6.51 µM [rising, single point] | – |
| O=C1CCCN1c1ccc(S(=O)(=O)NCCc2ccc(Cl)cc2)cc1 | -5.39 | – | – |
| C/C(=N/NC(=O)CNC(=O)C1COc2ccccc2O1)c1ccc([N+](=O)[O-])cc1 (stereo not given) | 11.7 | 6.51 µM [rising, single point] | – |
| CCOc1ccccc1N1CCN(C(=O)c2ccc(OCC(=O)N3CCOCC3)c(OC)c2)CC1 | -22.3 | 14.1 µM [falling, single point] | – |
| Cc1ccccc1C(=O)NCC(=O)OCC(=O)NC(C)C1CC2CCC1C2 (stereo not given) | -39.1 | 29.1 µM [falling, single point] | 29.1 µM [falling, single point] |

Entries listed so far containing a tert-butyl group, in the order listed:

| Compound | cell number change [%] | AC50 [1] | AC50 [2] |
| --- | --- | --- | --- |
| Cc1cccc(NC(=O)CNC(=O)COC(=O)c2ccc(C(C)(C)C)cc2)c1C | 36.6 | 23.1 µM [rising, partial curve, poor fit] | 0.0651 µM [rising, full curve, poor fit] |
| CC(C)(C)n1cnc2cc(NC(=O)c3ccccc3)ccc21 | -9.26 | 6.51 µM [falling, single point] | – |

(listing goes on)

| Compound | cell number change [%] | AC50 [1] | AC50 [2] |
| --- | --- | --- | --- |
| O=C(N/N=C/c1sc(N2CCCCC2)nc1-c1cccs1)C1CC1 | – | – | 2.59 µM [rising, single point] |
| CC(=O)c1cccc(NS(=O)(=O)c2ccc(C(=O)Nc3ccccc3)cc2)c1 | -37.2 | – | – |
| Cc1cc(NC(=O)COc2cccnc2[N+](=O)[O-])no1 | 34 | 0.651 µM [falling, full curve] | – |
| CC(NC(=O)C1CCN(S(=O)(=O)c2cccs2)CC1)c1cccc(Cl)c1 (stereo not given) | -8.41 | 1.84 µM [rising, partial curve, poor fit] | – |
| COc1ccc(-n2nc(C(=O)NCC(=O)NCCCN3CCOCC3)c3ccccc3c2=O)c(OC)c1 | 18 | 29.1 µM [falling, single point] | – |
| CCCC1C2CN(C(C)C)CC=C2C(C#N)=C(N)C1(C#N)C#N (stereo not given) | -15 | 2.59 µM [rising, single point] | – |
| CCOc1ccc(NC(=O)CSc2nc3cccnc3n2CC)cc1 | 6.07 | – | – |
| O=S(=O)(Nc1ccc(Cl)cc1)c1ccc2c(c1)CCO2 | -27.6 | 1.03 µM [falling, full curve, poor fit] | – |
| CC(C)n1c(O)c(N=Nc2ccccn2)c2ccccc21 | 21.1 | 1.84 µM [rising, partial curve] | – |
| Cc1nc2cc(C(=O)NCc3ccc4c(c3)OCO4)ccc2n1-c1ccc(Br)cc1 | 26.3 | 6.51 µM [rising, partial curve, poor fit] | – |
| CCOC(=O)C(C#N)C(c1cccnc1)c1c(C)[nH][nH]c1=O (stereo not given) | – | – | 0.13 µM [falling, full curve, poor fit] |
| Nc1ccccc1NC(=O)NC(=O)c1ccccc1 | 10.6 | 29.1 µM [rising, single point] | – |
| Cc1ccc(NC(=O)CCNC(=O)c2ccc([N+](=O)[O-])cc2)cc1S(=O)(=O)N(C)C | -18.3 | 0.13 µM [falling, full curve, poor fit] | – |
| CCCn1nnc(NC(=O)c2ccccc2Cl)n1 | 7.64 | 0.58 µM [falling, partial curve] | – |
| Cc1ccc(OCCCC(=O)N(C)CC(=O)Nc2ccccc2Br)cc1 | 44.6 | – | 20.6 µM [rising, partial curve] |
| COc1ccc(C(=O)Nc2nc3ccccc3s2)c(OC)c1 | -41.2 | – | 23.1 µM [falling, partial curve, poor fit] |
| O=C(NC1CC2CCC(C1)N2C(=O)NC1CCCCC1)NC12CC3CC(CC(C3)C1)C2 (stereo not given) | -9.86 | 0.13 µM [falling, full curve, poor fit] | 0.0058 µM [falling, full curve, poor fit] |
| CC(=O)c1ccc(N(C(=O)CNC(=O)c2cccs2)C(C(=O)NCC2CCCO2)c2ccccc2)cc1 (stereo not given) | 9.52 | 29.1 µM [falling, single point] | 0.206 µM [rising, full curve, poor fit] |
| COc1ccccc1-c1nnc(N(C)C(=O)C2CCCO2)s1 (stereo not given) | – | 18.4 µM [rising, partial curve] | 2.59 µM [rising, partial curve] |

A different layout for 2 compounds above:
CCOC(=O)N1CCc2c(sc3c2c(=O)n(Cc2ccccc2)c(=O)n3CC(=O)NCC2CCCO2)C1 (stereo not given)
  cell number change [%]: 7.08
  AC50 [1]: 3.26 µM [rising, single point]
  AC50 [2]: 6.51 µM [rising, single point]
CNC(=O)CSc1nc2cc(S(=O)(=O)Nc3ccccc3OC)ccc2o1
  cell number change [%]: 1.68
  AC50 [1]: 6.51 µM [rising, single point]
